From paper doi:10.1101/2024.06.26.600663
These are yes or no findings as the source states them, for the method shown. Binding seen in cells or lysates may run through a third protein. Binding calls can cover weak binding; strength is not graded here. Tags and fused reporters may be left off the sequences shown.

Legend:
[1] = target: Pmc4-Pk (expressed from its endogenous locus in fission yeast) (Schizosaccharomyces pombe (fission yeast)); experiment: co-IP
[2] = target: GST-Pmc4 (full-length Pmc4) (Schizosaccharomyces pombe (fission yeast)); experiment: pull-down + SEC

| Binder | binding [1] | binding [2] |
| --- | --- | --- |
| Cnd1-Myc (wild type, expressed from its endogenous locus in fission yeast) (protein, UniProt O94679 1-1158) MSLDLLSRLKKYIHDEENSDLDSIYAECENAGLTAVVNDVIDTLLLGTSSCFDEDCLEKLFAICSHFADLSSSVRNKVYDLLTSNISSESAILEDMISANATDFTVPQTNLETTGIAFQLTVNSLSSSNQLSVIRSSTNTVKGRKKNPTTNSNWNGISHVNALLDAIITLFQKKLSRVWTTSSERDMFLSLFLKPIYTLMESEINIKNASFRSRLFNIIGLAVQFHNHTTAAETNIIQNLQYFEHLSEYAADLVHIVTVQFNSVTLAEGIIRTLCSLEFNDNDVKGPKQVALFLVRLSSLIPNLCLKQLTQLVKLLDSESYTLRCAIIEVLANVVIDQIHDEAQNEMSESVPATVQSLMDLLSERLLDISPYCRTKVLHVFIKIFDLPIKYPRKRQEIAELVIRCLQDRSSHVRRNAIKLFSKLLTTHPFSVMHNGLLTRNIWEKGLSIIEEQLNSLQPKQQEKVVDSELEVDENLLEDATMIQDDESHEGESHLENSLSEYVDSVPAEEIVKVNLTKRFYLEALQYIDIVEAGAKIISQLLFAKNKSEVIESMDFFVFCNSFGISSSKLYIKKMIHLIWVKGTSDEGNNIQNHVLSCYKTLFFEPPPNSGTNEAANYIARNLISLTYDASLAELTSLEQMLCILMKDGYFSHLVITKLWQVYSYQKKDISRTQRRGSIIVIGMLALGNTDVVMQGLDHLIQIGLGPPGLEDLVLARYTCIAIKRIGKDASGSSNINFPNSHTLCQKLCMLLLRPSFSEEWFGLEEQAIEAIYAVAKHPDELCTNIILLLTKQLFKPSNHENTTSNDDHAMDEDLDDSPEEETLKDEEEIGIRLAHLIFLVGHVAIKQLVYIEYCEAEFKRRKADAERLAVQNSNNPINGQETSEYDLITGTSEDDFSEAMTFIRERELLYGENSLLSRFAPLVVELCSNHKSHNNQSLLLAASLTLSKFMCLSNNFCMEHLPLLITILEKCDNPIIRNNLVIGLADLTVCFNHFIDEISEYLYRRLMDEESSVKKTCFMTLAFLILAGQIKVKGQLGIMARSLEDEDARISDLARMFFTDFAAKDNSVYNNFIDIFSVLSRSAEEQDEDDAKFKRIIRFLTSFIEKERHTKQLAERLAARLDRCKTQRQWDHVVYALSLLPHKADNIQKLIDDGYHE | binds |  |
| His-Cnd1 (full-length Cnd1) (protein, UniProt O94679 1-1158) MSLDLLSRLKKYIHDEENSDLDSIYAECENAGLTAVVNDVIDTLLLGTSSCFDEDCLEKLFAICSHFADLSSSVRNKVYDLLTSNISSESAILEDMISANATDFTVPQTNLETTGIAFQLTVNSLSSSNQLSVIRSSTNTVKGRKKNPTTNSNWNGISHVNALLDAIITLFQKKLSRVWTTSSERDMFLSLFLKPIYTLMESEINIKNASFRSRLFNIIGLAVQFHNHTTAAETNIIQNLQYFEHLSEYAADLVHIVTVQFNSVTLAEGIIRTLCSLEFNDNDVKGPKQVALFLVRLSSLIPNLCLKQLTQLVKLLDSESYTLRCAIIEVLANVVIDQIHDEAQNEMSESVPATVQSLMDLLSERLLDISPYCRTKVLHVFIKIFDLPIKYPRKRQEIAELVIRCLQDRSSHVRRNAIKLFSKLLTTHPFSVMHNGLLTRNIWEKGLSIIEEQLNSLQPKQQEKVVDSELEVDENLLEDATMIQDDESHEGESHLENSLSEYVDSVPAEEIVKVNLTKRFYLEALQYIDIVEAGAKIISQLLFAKNKSEVIESMDFFVFCNSFGISSSKLYIKKMIHLIWVKGTSDEGNNIQNHVLSCYKTLFFEPPPNSGTNEAANYIARNLISLTYDASLAELTSLEQMLCILMKDGYFSHLVITKLWQVYSYQKKDISRTQRRGSIIVIGMLALGNTDVVMQGLDHLIQIGLGPPGLEDLVLARYTCIAIKRIGKDASGSSNINFPNSHTLCQKLCMLLLRPSFSEEWFGLEEQAIEAIYAVAKHPDELCTNIILLLTKQLFKPSNHENTTSNDDHAMDEDLDDSPEEETLKDEEEIGIRLAHLIFLVGHVAIKQLVYIEYCEAEFKRRKADAERLAVQNSNNPINGQETSEYDLITGTSEDDFSEAMTFIRERELLYGENSLLSRFAPLVVELCSNHKSHNNQSLLLAASLTLSKFMCLSNNFCMEHLPLLITILEKCDNPIIRNNLVIGLADLTVCFNHFIDEISEYLYRRLMDEESSVKKTCFMTLAFLILAGQIKVKGQLGIMARSLEDEDARISDLARMFFTDFAAKDNSVYNNFIDIFSVLSRSAEEQDEDDAKFKRIIRFLTSFIEKERHTKQLAERLAARLDRCKTQRQWDHVVYALSLLPHKADNIQKLIDDGYHE |  | binds |
